Values from PubChem BioAssay AID1508597 (Cure First, 2020)
This is a random part of the about 2,100 reagents, under one of the conditions tested. 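Calls flag viability under 80% in either arm, not effects specific to rucaparib; the reference for percent is not stated.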 The record does not give: the 100% reference.

Aim: 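Genes whose silencing sensitises or protects ovarian cancer cells against rucaparib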 (primary screen)
System: human ovarian carcinoma lines grown from tumours: OCI-P5x (papillary serous) and OCI-C5x (clear cell)
Reagents: siRNA pool against human genes, 1.25 pmol siRNA per well
Duration: 72 h or 96 h, depending on the cell culture
Challenge: rucaparib 20 µM (about IC30) or vehicle, present until read-out
Rucaparib or vehicle: Vehicle
Cell line: OCI-C5x (clear cell)
Measurement: 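Luminescent ATP-based viability assay read 72 or 96 h after transfection, depending on culture, given as normalised percent viability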
Reading the numbers: viability, normalised: higher = more viable cells remaining
Active means: 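a well counts as a hit if its normalised viability is under 80 percent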
Calls: active = viability under 80%; inactive = viability 80% or more

gene | technical replicate | viability, normalised (%) | Outcome
NDRG1 | 1 | 64.2 | active
NDRG1 | 2 | 58.6 | active
NDRG1 | 3 | 63.5 | active
NCOA5 | 1 | 55.6 | active
NCOA5 | 2 | 37.9 | active
NCOA5 | 3 | 69.6 | active
RAF1 | 1 | 54.6 | active
RAF1 | 2 | 69.7 | active
RAF1 | 3 | 54.3 | active

Ordered by “viability, normalised (%)” (descending): some entries from above
gene | technical replicate | viability, normalised (%) | Outcome
RAF1 | 2 | 69.7 | active
RAF1 | 1 | 54.6 | active

The results go on:
gene | technical replicate | viability, normalised (%) | Outcome
MBD2 | 1 | 51 | active
MBD2 | 2 | 44.8 | active
MBD2 | 3 | 39.2 | active
BRD8 | 1 | 42.8 | active
BRD8 | 2 | 46.7 | active
BRD8 | 3 | 43.1 | active
MAP2K6 | 1 | 87.3 | inactive
MAP2K6 | 2 | 82.1 | inactive
MAP2K6 | 3 | 66.8 | active
UBR7 | 1 | 54.9 | active
UBR7 | 2 | 51.3 | active
UBR7 | 3 | 75 | active
PRKRA | 1 | 35 | active
PRKRA | 2 | 47.6 | active
PRKRA | 3 | 50.2 | active
